The experiment addresses ubiquitin-specific protease 14 (USP14), endogenous (human (endogenous in PLC-R)) (UniProt P54578). The experiment is described as follows: affinity purification with mass spectrometry; PLC-R cell lysate immunoprecipitated with anti-USP14 or IgG antibodies, protein A/G magnetic beads, gel, mass spectrometry.

Amino acid sequences for entries named in this document (tags omitted).
UniProt P54578: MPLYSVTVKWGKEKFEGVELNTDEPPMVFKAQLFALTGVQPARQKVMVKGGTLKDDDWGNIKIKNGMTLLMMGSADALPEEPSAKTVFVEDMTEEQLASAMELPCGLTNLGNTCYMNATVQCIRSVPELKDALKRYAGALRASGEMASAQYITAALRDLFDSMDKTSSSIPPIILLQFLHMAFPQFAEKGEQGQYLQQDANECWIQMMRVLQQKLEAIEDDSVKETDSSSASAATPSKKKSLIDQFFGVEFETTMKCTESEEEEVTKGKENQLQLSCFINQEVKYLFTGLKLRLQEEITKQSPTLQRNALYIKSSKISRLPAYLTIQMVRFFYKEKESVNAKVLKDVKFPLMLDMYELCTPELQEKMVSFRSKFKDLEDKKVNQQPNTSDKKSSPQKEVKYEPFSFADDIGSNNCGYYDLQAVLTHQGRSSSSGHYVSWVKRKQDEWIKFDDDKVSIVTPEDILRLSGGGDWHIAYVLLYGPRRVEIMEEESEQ

No constants are given. Whether binding was seen depends on the method and setting. In cells and extracts the contact can be indirect. These calls come from enrichment with a bait or labelling near it, and not all partners need be listed.

B1: calcium- and integrin-binding protein 1 (CIB1), endogenous (protein, UniProt Q99828 1-191)
chain: MGGSGSRLSKELLAEYQDLTFLTKQEILLAHRRFCELLPQEQRSVESSLRAQVPFEQILSLPELKANPFKERICRVFSTSPAKDSLSFEDFLDLLSVFSDTATPDIKSHYAFRIFDFDDDGTLNREDLSRLVNCLTGEGEDTRLSASEMKQLIDNILEESDIDRDGTINLSEFQHVISRSPDFASSFKIVL
Take B1: the binding entry was “binds”.

Values taken from article PMC11234209.
